From paper PMC3458073
These are yes or no findings as the source states them, for the method shown.

Amino acid sequences for entries named in this document (tags omitted). A change or cut given only in a name is not applied to a line headed by its entry. Chains listed by the source or under a name are the forms on record and can include a tag or linker.
human frataxin, C-terminal domain, variant hFXN90–210 (Q16595, form named): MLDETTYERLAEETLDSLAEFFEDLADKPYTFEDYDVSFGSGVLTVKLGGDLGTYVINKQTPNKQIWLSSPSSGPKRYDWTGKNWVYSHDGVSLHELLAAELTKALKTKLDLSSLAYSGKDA

Target: human frataxin, C-terminal domain, variant hFXN90–210 (human) (UniProt Q16595)
Experiment: AUC; sedimentation velocity, 20 °C, 42,000 rpm, absorbance optics; 1.0, 0.5 and 0.25 mg/mL protein; 10 mM Tris-HCl, 100 mM NaCl, pH 7.0; c(s) and non-interacting species analysis (SEDFIT); both purified

human frataxin, C-terminal domain, variant hFXN90–210 (from UniProt Q16595 90-210) (domain or fragment)
binding: no binding (tested: 0.25 to 1.00 mg/mL)
